Measured values published in PubChem BioAssay AID2685 (National Center for Advancing Translational Sciences (NCATS), 2010).
This is one part of the list. Further columns of the screen follow, without active or inactive calls. The list favours compounds with an active or inconclusive main result. Potencies come from curve fits of mixed quality, noted in brackets.

Assay: qHTS Assay for Lipid Storage Modulators in Drosophila S3 Cells;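 on cell number change: cells counted by Cell Tracker Red CMTPX staining in the red channel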
Conditions: BODIPY lipid droplet fluorescence, 18-24 h; for cell number change: measured here: cell count max response, cells fed with added oleic acid
Method in brief: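 Drosophila S3 cells got compounds at several concentrations plus oleic acid (400 uM solution). Laser-scanning cytometry with 488 nm excitation read lipid droplets at 500-530 nm and cells at 575-640 nm. Percent activity was relative to 20 uM Triacsin C.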

[1] = measured here: lipid fluorescence (Fed channel) AC50, cells fed with added oleic acid
[2] = measured here: cell number channel AC50, cells fed with added oleic acid

| Compound | cell number change [%] | AC50 [1] | AC50 [2] |
| --- | --- | --- | --- |
| O=C(CSc1nnc(COc2ccccc2)n1-c1ccccc1)c1ccccc1 | -11.3 | 0.082 µM [rising, full curve, poor fit] | – |
| N#Cc1cnn2ccn(C3OC(CO)C(O)C3O)c12 (stereo not drawn) | -16.1 | 0.00411 µM [falling, full curve, poor fit] | – |
| Cc1ccccc1-c1ccc(C=Nc2c(C)n(C)n(-c3ccccc3)c2=O)o1 | 3.41 | 0.731 µM [falling, full curve] | 0.00461 µM [falling, full curve, poor fit] |
| COc1ccc(C(C(=O)NC2CCCC2)N(Cc2cccnc2)C(=O)c2snc(C(N)=O)c2N)cc1OC (stereo not drawn) | 15.4 | – | – |
| COc1ccc(-c2ccnc3c(C(=O)O)cnn23)cc1 | – | 6.51 µM [falling, single point] | – |
| Cc1nn(-c2ccccc2)c(Cl)c1C(=O)Nc1nnc(C2CCCC2)s1 | -14.4 | 8.2 µM [rising, partial curve, poor fit] | – |
| O=C(NC1=NCCS1)c1cccc(S(=O)(=O)N2CCCCC2)c1 | 5.77 | – | 0.651 µM [rising, partial curve] |
| O=C(Oc1ccc(Cl)cc1N1C(=O)CCC1=O)c1ccco1 | -124 | 25.9 µM [falling, partial curve] | 23.1 µM [falling, partial curve] |
| O=C(Nc1ccccc1N1CCOCC1)C1=NN(c2c(F)c(F)cc(F)c2F)C(=O)CC1 | -12.1 | 20.6 µM [falling, partial curve, poor fit] | – |
| CCN(C(=O)c1coc(=O)c2ccccc12)c1cc(OC)ccc1OC | 108 | 2.91 µM [rising, partial curve] | 9.2 µM [rising, partial curve] |
| COc1cccc(S(=O)(=O)NCc2ccc(C(=O)Nc3ccc(Cl)cc3)cc2)c1 | -19.6 | 32.6 µM [falling, single point] | – |
| O=c1[nH]c(C2CCN(S(=O)(=O)c3cccc([N+](=O)[O-])c3)CC2)nc2c1nnn2Cc1ccccc1 | -8.97 | – | – |
| CC(C)CNS(=O)(=O)c1cc(C(=O)N2CCOCC2)c(Cl)cc1Cl | – | – | 0.116 µM [falling, full curve, poor fit] |
| CCCCC(=O)NC(=S)Nc1cccc(NC(=O)c2ccccc2)c1 | 14.6 | 4.61 µM [rising, full curve, poor fit] | – |
| O=C(CNC(=O)c1nc[nH]c1C(=O)NCc1ccccc1)OCc1ccccc1 | 33.5 | – | – |
| COC(=O)/C(=C\Nc1ccc(Cl)c2ccccc12)c1ncc(C(F)(F)F)cc1Cl | – | – | 0.517 µM [rising, partial curve] |
| CC1CCN(c2ccccc2NC(=S)NC(=O)c2ccc(-c3cccc([N+](=O)[O-])c3)o2)CC1 | 1.91 | 0.231 µM [rising, full curve, poor fit] | – |
| CC1(c2ccccc2)NC(=O)N(CC#N)C1=O (stereo not drawn) | -10.9 | – | 0.206 µM [falling, full curve] |
| CCC1(C)Cc2c(sc3nnn(CC(=O)Nc4ccccc4)c(=O)c23)CO1 (stereo not drawn) | -13.7 | 6.51 µM [rising, partial curve, poor fit] | 6.51 µM [rising, single point] |
| N#Cc1ncc(-c2ccc3c(c2)OCCOCCOCCOCCOCCO3)nc1C#N | -52.4 | 25.9 µM [falling, partial curve] | 23.1 µM [falling, partial curve, poor fit] |
| c1ccc(CSc2ccc(-c3cccs3)nn2)nc1 | -0.11 | 5.8 µM [rising, partial curve, poor fit] | 1.46 µM [rising, partial curve, poor fit] |
| O=C(Cn1nc(C(F)F)cc1C1CC1)N1CCCC1 | -25.6 | – | – |
| CN(CC(=O)NCCc1ccc(F)cc1)Cc1ccc(Br)cc1 | -25.7 | – | – |
| O=C(NCCN1C(=O)S/C(=C\c2cccc(Cl)c2Cl)C1=O)C1=COCCO1 | – | 29.1 µM [falling, single point] | – |
| CC1(C)Cc2c(sc(/N=C/N3CCCCC3)c2C#N)C(C)(C)N1 | -44.6 | 18.4 µM [falling, single point] | 1.84 µM [falling, full curve] |
| CCn1cc(Br)c(C(=O)Nc2ccccc2C(=O)OC)n1 | – | – | 3.66 µM [rising, partial curve, poor fit] |
| COc1ccc(Br)cc1C(=O)Nc1ccc(NC(=O)c2ccco2)cc1 | – | 0.146 µM [rising, full curve, poor fit] | 0.184 µM [rising, full curve, poor fit] |
| O=C(Nc1nnc(S(=O)(=O)N2CCCC2)s1)c1ccccc1Cl | 2.69 | 29.1 µM [rising, single point] | – |
| COc1cc(C2Oc3cc(C4Oc5cc(O)cc(O)c5C(=O)C4O)ccc3OC2CO)ccc1O (stereo not drawn) | 27.6 | 13 µM [rising, partial curve] | 4.11 µM [rising, full curve, poor fit] |
| NC(=O)NC(Cc1ccccc1)C(=O)NCC1(N2CCCCC2)CCCCC1 (stereo not drawn) | 3.33 | 2.91 µM [rising, full curve, poor fit] | – |

Arranged by SMILES length (ascending): part of the list above.

| Compound | cell number change [%] | AC50 [1] | AC50 [2] |
| --- | --- | --- | --- |
| CCN(C(=O)c1coc(=O)c2ccccc12)c1cc(OC)ccc1OC | 108 | 2.91 µM [rising, partial curve] | 9.2 µM [rising, partial curve] |
| NC(=O)NC(Cc1ccccc1)C(=O)NCC1(N2CCCCC2)CCCCC1 (stereo not drawn) | 3.33 | 2.91 µM [rising, full curve, poor fit] | – |
| COc1cccc(S(=O)(=O)NCc2ccc(C(=O)Nc3ccc(Cl)cc3)cc2)c1 | -19.6 | 32.6 µM [falling, single point] | – |
